PubChem BioAssay AID504774, Drosophila RNAi Screening Center, 2011
The deposit covers about 23,000 reagents; shown is an unselected part of those that have a named target and a result. 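Values are quantile-normalised luminescence on an arbitrary scale; higher means more cells surviving MMS.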 Not all columns of the deposit are shown.

Assay: 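Fly genes whose loss alters survival after alkylation damage to DNA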 (primary screen)
Cell system: Drosophila Kc167 cells
Knock-down reagent: long dsRNA against Drosophila genes, about 0.25 µg dsRNA per well
Timing: about 6 days: 3 days knock-down, then 3 days with or without MMS
Conditions: methyl methanesulphonate 0.004% (w/v) for 3 days after knock-down
Measured: 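ATP-dependent luminescence as a measure of live cells in MMS-exposed wells, quantile normalised within each plate, with replicate values also given as a mean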
Scale: mean viability with MMS: higher = more surviving cells after MMS

| gene knocked down | PubChem SID | mean viability with MMS |
| --- | --- | --- |
| Sply | SID104187091 | 2.07e6 |
| CG42650 | SID104192254 | 3.73e6 |
| CG13585 | SID104184013 | 3.51e6 |
| Coprox | SID104181788 | 3.63e6 |
| CG14492 | SID104186255 | 3.51e6 |
| CG17217 | SID104182384 | 3.60e6 |
| m-cup | SID104194222 | 3.62e6 |
| Msp300 | SID104180646 | 3.33e6 |
| Msp300 | SID104180648 | 3.65e6 |
| Msp300 | SID104180649 | 3.39e6 |
| Msp300 | SID104180650 | 3.27e6 |
| Msp300 | SID104182152 | 3.64e6 |
| Msp300 | SID104183161 | 3.56e6 |
| Msp300 | SID104183162 | 3.67e6 |
| smid | SID104191190 | 3.72e6 |
| CtsF | SID104191848 | 3.65e6 |
| CtsF | SID104191987 | 3.51e6 |
| CtsF | SID104191988 | 3.36e6 |
| Mlc2 | SID104196533 | 3.71e6 |
| CG32984 | SID104201306 | 3.93e6 |
| btd | SID104198539 | 3.40e6 |
| NijA | SID104190429 | 3.40e6 |
| Lrch | SID104182788 | 3.31e6 |
| Dis3l2 | SID104188288 | 3.50e6 |
| crn | SID104197976 | 2.89e6 |
| crn | SID104197977 | 3.19e6 |
| crn | SID104198547 | 2.88e6 |
| Ccdc114 | SID104194817 | 3.54e6 |
| Btnd | SID104198108 | 3.51e6 |
| Ptp4E | SID104198493 | 3.55e6 |
| CG14540 | SID104194676 | 3.49e6 |
| CCT2 | SID104198207 | 3.35e6 |
| tow | SID104189984 | 2.82e6 |
| tow | SID104202482 | 3.59e6 |
| PpD3 | SID104196588 | 3.64e6 |
| Cda4 | SID104200415 | 3.63e6 |
| Cda4 | SID104200433 | 3.48e6 |
| Cda4 | SID104200434 | 3.54e6 |
| CG11912 | SID104180124 | 3.47e6 |
| noi | SID104192175 | 3.07e6 |
| Pgant1 | SID104186887 | 3.43e6 |
| CG30274 | SID104183963 | 3.65e6 |
| GPHR | SID104186867 | 3.65e6 |
| CG8613 | SID104187014 | 3.53e6 |
| CG3764 | SID104190167 | 3.55e6 |
| Cyp6a23 | SID104187175 | 3.68e6 |
| Ankle2 | SID104199897 | 3.85e6 |
| Ankle2 | SID104199898 | 3.52e6 |
| CG3719 | SID104198285 | 1.83e6 |
| CG1552 | SID104199457 | 3.61e6 |
| axed | SID104188625 | 3.64e6 |
| axed | SID104190774 | 3.51e6 |
| CG15877 | SID104188277 | 3.52e6 |
| CG16753 | SID104188281 | 3.50e6 |
| CG13069 | SID104189744 | 3.54e6 |
| Ndg | SID104186015 | 3.47e6 |
| CG8006 | SID104190741 | 3.38e6 |
| CG32655 | SID104198717 | 3.44e6 |
| CLIP-190 | SID104183075 | 3.47e6 |
| mnd | SID104191162 | 3.44e6 |
| Rpn7 | SID104196633 | 2.94e6 |
| Gprk2 | SID104196474 | 3.06e6 |
| Gprk2 | SID104202693 | 3.68e6 |
| CG32053 | SID104190475 | 3.56e6 |
| NT5E-2 | SID104186685 | 3.59e6 |
| sced | SID104184782 | 3.50e6 |
| CG33332 | SID104195296 | 3.39e6 |
| CG7094 | SID104182797 | 3.42e6 |
